Experimental data: patent US20230293458A1, “MULTIBIOTIC AGENTS AND METHODS OF USING THE SAME” (Flagship Pioneering Innovations V, Inc., priority 2017, published 2023)
Some of these results come from one statement about several compounds together.

assay: Stability of multibiotic agents in Simulated Intestinal Fluid (SIF); format: in vitro ADME; details: conclusion from the SGF and SIF stability data of Table 1
Method: Assay 2. Stability of multibiotic agents in Simulated Intestinal Fluid (SIF). This assay can be used to assess the stability of a multibiotic agent in a small intestine. Phosphate buffer was prepared by dissolving 0.42 g of sodium hydroxide pellets and 3.95 g of monobasic sodium phosphate monohydrate and 6.19 g of sodium chloride in ultrapure water (MilliQ®, Millipore Sigma, Darmstadt, Germany). The pH was adjusted to 6.7 using aq. HCl and aq. NaOH, as necessary, and the solution was diluted with ultrapure water to produce 1 L of the pH 6.7 buffer. 112 mg FaSSIF powder (Biorelevant™, London, UK) was dissolved in 50 mL of the pH 6.7 buffer. 2 to 3 mL of the resulting solution were then added to 500 mg pancreatin (Millipore Sigma, Darmstadt, Germany). The resulting mixture was agitated by finger tapping the vessel containing the mixture until milky suspension formed. At this time, the remainder of the 50 mL FaSSiF/pH 6.7 buffer solution was added. The resulting suspension was flipped upside down 10 times to produce SIF, which was used fresh. Test compounds are dissolved in DMSO stock to 1 mM. An aliquot of the DMSO stock solution is removed and diluted in the SIF media in 15 mL falcon tubes to produce a mixture with a tested compound concentration of 1 μM. A 1 mL aliquot is immediately removed and diluted once with 1 volume of acetonitrile for T0 timepoint. The mixture is sealed and agitated at 37° C. in an incubator. Aliquots (1 mL) are removed at regular intervals and immediately quenched by the addition of 1 volume of acetonitrile. The resulting samples are analyzed by LC/MS to determine degradation rates.

Compound	delivery site concluded from Table 1 (in words)
CCCC(=O)O[C@@H]1[C@H](OC(=O)CCC)COC(O)[C@@H]1OC(=O)CCC (stereo partly drawn) [Example 144, [(3R,4R,5R)-4,5-di(butanoyloxy)-6-hydroxy-tetrahydropyran-3-yl] butanoate]	can be delivered at least to the small intestine
CC(=O)Oc1ccc(C2CC(=O)c3c(OC(C)=O)cc(OC(C)=O)cc3O2)cc1 (stereo not drawn) [Example 170, [4-(5,7-diacetoxy-4-oxo-chroman-2-yl)phenyl] acetate]	can be delivered at least to the small intestine
CCCC(=O)O[C@H]1CO[C@H]2[C@@H]1OC[C@H]2OC(=O)CCC [Example 108, [(3S,3aR,6R,6aR)-6-butanoyloxy-2,3,3a,5,6,6a-hexahydrofuro[3,2-b]furan-3-yl] butanoate]	can be delivered at least to the small intestine
O=C(Cc1c[nH]c2ccccc12)OC[C@H](OC(=O)Cc1c[nH]c2ccccc12)[C@@H](COC(=O)Cc1c[nH]c2ccccc12)OC(=O)Cc1c[nH]c2ccccc12 [Example 105, [(2R,3S)-2,3,4-tris[[2-(1H-indol-3-yl)acetyl]oxy]butyl] 2-(1H-indol-3-yl)acetate]	can be delivered at least to the small intestine
C=C1CC[C@H](OC(=O)[C@H](OC(=O)CCC)[C@@H](OC(=O)CCC)[C@H](OC(=O)CCC)[C@@H](COC(=O)CCC)OC(=O)CCC)C/C1=C/C=C1\CCC[C@]2(C)[C@@H]([C@H](C)CCCC(C)C)CC[C@@H]12 [Example 184, [(1S,3Z)-3-[(2E)-2-[(1R,3aS,7aR)-1-[(1R)-1,5-dimethylhexyl]-7a-methyl-2,3,3a,5,6,7-hexahydro-1H-inden-4-ylidene]ethylidene]-4-methylene-cyclohexyl] (2R,3S,4R,5R)-2,3,4,5,6-penta(butanoyloxy)hexanoate]	can be delivered at least to the small intestine
CCCC(=O)Oc1ccc(/C=C/c2cc(OC(=O)CCC)cc(OC(=O)CCC)c2)cc1 [Example 7, [4-[(E)-2-[3,5-di(butanoyloxy)phenyl]vinyl]phenyl] butanoate]	can be delivered at least to the small intestine
CCCC(=O)Oc1ccc(C2CC(=O)c3c(OC(=O)CCC)cc(OC(=O)CCC)cc3O2)cc1 (stereo not drawn) [Example 171, [4-[5,7-di(butanoyloxy)-4-oxo-chroman-2-yl]phenyl] butanoate]	can be delivered at least to the small intestine
CC(=O)OCC[C@@H](C)OC(=O)Oc1ccc(/C=C/c2cc(OC(=O)O[C@H](C)CCOC(C)=O)cc(OC(=O)O[C@H](C)CCOC(C)=O)c2)cc1 [Example 178, [(3R)-3-[4-[(E)-2-[3,5-bis[[(1R)-3-acetoxy-1-methyl-propoxy]carbonyloxy]phenyl]vinyl]phenoxy]carbonyloxybutyl] acetate]	can be delivered at least to the small intestine
CCC(=O)O[C@@H]1[C@@H](OC(=O)CC)[C@H](OC(=O)CC)CO[C@H]1O [Example 166, [(3R,4S,5R,6R)-6-hydroxy-4,5-di(propanoyloxy)tetrahydropyran-3-yl] propanoate]	can be delivered at least to the small intestine
Cc1c(C)c2c(c(C)c1OC(=O)C1OCC[C@@H](C)O1)CC[C@@](C)(CCC[C@H](C)CCC[C@H](C)CCCC(C)C)O2 (stereo partly drawn) [Example 183, [(2R)-2,5,7,8-tetramethyl-2-[(4R,8R)-4,8,12-trimethyltridecyl]chroman-6-yl] (4R)-4-methyl-1,3-dioxane-2-carboxylate]	can be delivered at least to the small intestine
CCCC(=O)O[C@H](C)CC(=O)OCCCNC(=O)[C@H](OC(=O)C[C@@H](C)OC(=O)CCC)C(C)(C)COC(=O)C[C@@H](C)OC(=O)CCC [Example 91, 3-[[(2R)-2,4-bis[[(3R)-3-butanoyloxybutanoyl]oxy]-3,3-dimethyl-butanoyl]amino]propyl (3R)-3-butanoyloxybutanoate]	can be delivered at least to the small intestine
O=C(CCc1c[nH]c2ccccc12)O[C@H]1[C@@H](OC(=O)CCc2c[nH]c3ccccc23)COC(O)[C@@H]1OC(=O)CCc1c[nH]c2ccccc12 (stereo partly drawn) [Example 148, [(3S,4S,5R)-6-hydroxy-4,5-bis[3-(1H-indol-3-yl)propanoyloxy]tetrahydropyran-3-yl] 3-(1H-indol-3-yl)propanoate]	can be delivered at least to the small intestine
CCCC(=O)O[C@@H]1[C@H](OC(=O)CCC)[C@H](C)OC(O)[C@H]1OC(=O)CCC (stereo partly drawn) [Example 156, [(2S,3R,4R,5S)-4,5-di(butanoyloxy)-6-hydroxy-2-methyl-tetrahydropyran-3-yl] butanoate]	can be delivered at least to the small intestine
CCCC(=O)OC[C@H]1OC(OC(=O)CCC)[C@H](OC(=O)CCC)[C@@H](OC(=O)CCC)[C@@H]1OC(=O)CCC (stereo partly drawn) [Example 160, [(2R,3R,4S,5R)-3,4,5,6-tetra(butanoyloxy)tetrahydropyran-2-yl]methyl butanoate]	can be delivered at least to the small intestine
CCCC(=O)O[C@H]1[C@@H](OC(=O)CCC)COC(Oc2ccccc2C(=O)O)[C@@H]1OC(=O)CCC (stereo partly drawn) [Example 141, 2-[(3R,4S,5S)-3,4,5-tri(butanoyloxy)tetrahydropyran-2-yl]oxybenzoic acid]	can be delivered at least to the small intestine
